# Hit rate of the full screen: of about 52,000 sequences, about 210 (0.4%) were called active.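 The calls were made as follows: active = gene whose silencing raises cell survival under the drug, median off-target-corrected z-score across its silencing RNAs 2 or more; inactive = the rest.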 Some of the results follow.
# Assay: Resistance to Poly (ADP-Ribose) Polymerase inhibitor: Gene Identification via Genome-wide siRNA Screen
# Settings: mouse BRCA2 R2336H ES cells, olaparib, CellTiter-Glo viability; hits give high values
# In short: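 Genome-wide siRNA screen (3 siRNAs/gene, 20 nM) in mouse ES cells carrying hypomorphic BRCA2 R2336H; olaparib 500 nM added 48 h post-transfection, CellTiter-Glo viability 72 h later. Normalized to plate-median negative control; MAD z-scores, gene median, seed-adjusted.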
row,Sequence,z-score
1,GGCAUGGUGGUCUUUCCUUTT against Sephs1,inactive: 1.54
2,GGAUUCUCAAUAAAGACUUTT against Apoa1bp,inactive: 0.561
3,GGACCUAAGCAGAAAACUGTT against Mrg2,inactive: 0.392
4,GGAGCAUAGAAAAGACAAUTT against Adrbk1,inactive: -0.902
5,GCCCAACUUUCAACAAGACTT against Ptgds,inactive: -0.0597
6,GGUUCGUAAAAUUAUUAGGTT against Vcl,inactive: -0.00255
7,UUUAGCUUUCUUCUGGCUCTT against Olfr438,inactive: 0.413
8,GGGCGAAAACCAUUCAAAUTT against Zfp112,inactive: 0.534
9,CCGUAUUAGAAAGUAGAUATT against Arpp19,inactive: 0.46
10,CGGACAAGAUAGUAUUCUUTT against Atp2b1,inactive: 0.843
11,GGAACUGGUGUCAGUGUUGTT against Psmd14,inactive: 0.55
12,CCACUACGUUGUUGAUCACTT against Pcdhga11,inactive: -0.846
13,GGCGCAUCAUUAUUACCUCTT against BC042698,inactive: 0.445
14,GGUUCUUUGGCUCUGUAUGTT against Atp5c1,inactive: -2.21
15,GCUUACCUUACAUUGUAAGTT against Eda2r,inactive: 1.74
16,CCGCUUGGUUACCAGUGACTT against Nudc,inactive: -2.71
17,GGACAAAGGGAUUGCCAUUTT against Il1f9,inactive: -0.951
18,GGUCAACAAUCACUUUUUCTT against Pip5k2c,inactive: -0.285
19,GGCAAAGGCCUAUGAACUGTT against Phka1,inactive: 2.8
20,GCAAGAAACCAACCAAUCCTT against 6-Sep,inactive: -1.11
21,GGAACAAAGAUGUCAAGAUTT against Olfr904,inactive: -0.238
22,CGACCAUUAUACAACAGAUTT against F630111L10Rik,inactive: 0.0313
23,GACCAUCAGUGAUUGAGGATT against Speer4b,inactive: 0.195

row,Sequence,z-score
1,GGAAACAGUCAUGCAGCAATT against Plvap,inactive: 2.68
2,GGGCCAAUGAUGGACUUCCTT against Syp,inactive: 0.221
3,GGACUUACUGACAAGAAACTT against Pcdhgb8,inactive: -0.429
4,GGUGAAGACUUCCAGAAGGTT against Reg3a,inactive: -0.335
5,GCCAGUGGUAUCUGGAAGUTT against Brca2,inactive: 0.761
6,GGAGACGGAGCUGUUAGAUTT against Plcb1,inactive: 0.513
7,GCCGCUCUGUACUUUGUCUTT against BC014699,inactive: 0.268
8,CCUGAUGAUUCAACAAAAGTT against Pum2,inactive: 1.09
9,CCUACAUCCUCCAUAGAAUTT against LOC434228,inactive: 1.33
10,GGGUAUAGGGAUGGUGAAUTT against Ppil1,inactive: 0.65
11,GCCAAUUGGACCUUAGAAATT against Nup107,inactive: -1.9
12,CGAGAUGGGAGAUUGAAAUTT against Ms4a8a,inactive: -0.41
13,GGUGAAGAAGGUGUUCCAUTT against Pvalb,inactive: -1.34
14,GGACCCUGACUCAUUGGCATT against 4933400K24Rik,inactive: -0.252
15,GCGGACAGUUUGGCACAAUTT against Becn1,inactive: -0.17
16,CCUCUGUGCUCGUCUUUUUTT against Arhgap6,inactive: 0.215
17,GGGCGACAUCUUUAGCAAATT against Sh3bp4,inactive: 0.942
18,GGUCCUGACUGGAUACCUGTT against Ece1,inactive: -0.29
19,CCAUUCAUUUAACCUUUCATT against Thea,inactive: 0.691
20,GCCAUGAAUCCUAUCCGCATT against Ephb3,inactive: -0.724
21,CGUGCUUAUUUUCAAGAAGTT against 1810019J16Rik,inactive: 0.743
22,CCAGGGACCCGUAAUUUAUTT against Fn3k,inactive: 1.16
23,GCUGAUGGAGAGUUAUUUGTT against Rcbtb1,inactive: -0.811

# Part of the list above in another layout.
row	Sequence	z-score
9	CCGUAUUAGAAAGUAGAUATT against Arpp19	inactive: 0.46
10	CGGACAAGAUAGUAUUCUUTT against Atp2b1	inactive: 0.843

# The listing continues:

row,Sequence,z-score
1,GGCUGAGGAGAUAACCAUATT against 5330401P04Rik,inactive: -0.083
2,GGCGAAUGGAAGAUAAUGCTT against Stxbp3,inactive: 2.61
3,GGACUAAGUAUAGAAUUCATT against Gdnf,inactive: 0.681
4,CGAUGAUGAACGAUGGACATT against Mmp3,inactive: 0.175
5,GCAGUAUUUUGCUAUCAUATT against 4921511C16,inactive: 0.0281
6,GGAGUUUUUACUAUCAAAGTT against Gm527,inactive: 0.607
7,GGAGGAGCUGAAUGAAAACTT against 2810468K05Rik,inactive: -0.164
8,GCUAUAAGAGAGCUAGACATT against 2610040E16Rik,inactive: -0.737
9,GGUUUUGUUGUGAGUGUUUTT against 1500010M16Rik,inactive: 1.88
10,GGUUGUUGGAAAAGAUGAATT against Ids,inactive: -0.257
11,GCUGUGAAUUCCAAAUGCGTT against Myh4,inactive: 0.483
12,GCUGGCUUCUAUACUUCCCTT against DXImx49e,inactive: -0.505
13,GGAGAAGACACAGAGAACCTT against BC046386,inactive: 2.29
14,CCUUCUUGACUAUUCGUCUTT against Olfr1509,inactive: -0.0964
15,GGGAUUGAACCCUUGUUUUTT against BC049762,inactive: 1.18
16,GGUGCUGAACAUCUAUGGGTT against Myo1d,inactive: 2.28
17,GCCAUAGAAGUAGAAGUAGTT against Rbmx2,inactive: -0.672
18,GCUCACUAAAUCCUUGAAATT against Trim31,inactive: -0.603
19,GGCUAUUAAAGAUUUGAUGTT against Myef2,inactive: -0.33
20,GGACCACAGAAGUUCUCAUTT against Pira2,inactive: 1.13
21,CGACAAGAAGACUUCGAAUTT against Mnt,inactive: 0.165

# Retrieved one by one from the entries so far:
row,Sequence,z-score
16,GGUGCUGAACAUCUAUGGGTT against Myo1d,inactive: 2.28
18,GCUCACUAAAUCCUUGAAATT against Trim31,inactive: -0.603
